Data from patent US20230372309A1, “ALPHA-2 ADRENERGIC RECEPTOR ANTAGONIST” (Kyoto University, priority 2020, published 2023).
Some of these results come from one statement about several compounds together.

What was measured:
a2 adrenergic receptor = assay: TGFα shedding assay, overall statement on FIG. 1; format: cell-based; conditions: inhibition of a2A, a2B, a2C signal transduction in response to noradrenaline stimulation
[1] = test system: inflammatory pain model mice induced by carrageenan; assay: Pain reduction, carrageenan-induced inflammatory pain model mice, mechanical allodynia; format: in vivo, mouse; conditions: compounds 1 and 2; intrathecal, six hours after carrageenan; determined one hour after administration; male C57BL/6J mice
[2] = test system: inflammatory pain model mouse induced by complete Freund's adjuvant (CFA); assay: Pain reduction, CFA-induced inflammatory pain model mice, mechanical allodynia; format: in vivo; conditions: compound 3; intrathecal, three days after CFA; up to three hours after administration; male C57BL/6J mice

| Compound | function as a2 adrenergic receptor antagonists (FIG. 1) (a2 adrenergic receptor) | pain reduction (mechanical allodynia), carrageenan model [1] | pain reduction (mechanical allodynia), CFA model [2] |
| --- | --- | --- | --- |
| CCN1/C(=C/C(C)=O)Sc2ccc(F)cc21 [Compound 1, (1Z)-1-(3-ethyl-5-fluoro-2(3H)-benzothiazolylidene)-2-propanone] | can function as a2 adrenergic receptor antagonists | significantly reduced pain | significantly reduced pain |
| CCN1/C(=C/C(C)=O)Sc2cc(OC)ccc21 [Compound 3, (1Z)-1-(3-ethyl-6-methoxy-2(3H)-benzothiazoylidene)-2-propanone] | can function as a2 adrenergic receptor antagonists | significantly reduced pain | significantly reduced pain |
